Assay results published in article PMC4819177, “The rational search for selective anticancer derivatives of the peptide Trichogin GA IV: a multi-technique biophysical approach” (Scientific Reports, 2016).

Columns and labels:
[1] = Far-UV CD spectroscopy (secondary structure); format: physicochemical; settings: for R = [θ]222/[θ]208 SDS: CD in 100 mM SDS; for R = [θ]222/[θ]208 MeOH: CD in MeOH
[2] = tested on: HeLa cells; test: EPR of TOAC-labelled peptides with intact HeLa cells; format: binding, human; settings: membrane-bound peptide, 125 μM, 25 nmol per million cells, 293 K
Excerpt: (§1) EPR spectroscopy has been performed on TOAC-labelled analogues to determine the amount of peptide bound to the membrane and to evaluate the peptide dynamics. […] We studied all analogues in buffer solution and in POPC SUV, the same systems used for CD spectroscopy; four selected analogues (see cytotoxicity assay paragraph) were also studied interacting with a suspension of intact cells of the three cell lines. […] Additionally, from the simulations, we determined the value of the Azz hyperfine component that gives an indication of the polarity of the environment. All EPR spectra and simulations are reported in the Supplementary Information (Figs S1–S4), while in Fig. 4, we report an overview of the experiments. In the top part of the figure, we show the spectra of [TOAC^1] TG in buffer solution (blue), in SUV (red), and interacting with T67 cells (magenta). In the bottom part, we show the spectra of the other three peptides, representative of the different degrees of biological activity, interacting with intact T67 cells. […]
(§2) Methanol, 99.9%, spectrophotometric grade, [4-(2-hydroxyethyl)-1-piperazinyl]ethanesulfonic acid (HEPES), and PBS buffer (NaCl 137 mM, KCl 2.7 mM, Na2HPO4 10 mM, KH2PO4 1.8 mM, pH 7.4) were purchased from Sigma-Aldrich. […] The spectra were recorded after 15–20 minutes of incubation of the peptide to the cell suspension. […]

[3] = tested on: T67 cells; test: EPR of TOAC-labelled peptides with intact T67 cells; format: binding, human; settings: membrane-bound peptide, 125 μM, 25 nmol per million cells, 293 K
Excerpt: as §1, §2

[4] = tested on: HDF cells; test: EPR of TOAC-labelled peptides with intact HDF cells; format: binding, human; settings: membrane-bound peptide, 125 μM, 25 nmol per million cells, 293 K
Excerpt: as §1, §2

Row | Molecule | R = [θ]222/[θ]208 SDS [1] | R = [θ]222/[θ]208 MeOH [1] | Correlation time, τ HeLa [2] | Correlation time, τ T67 [3] | Correlation time, τ HDF [4]
1 | Oct-UGLLGGLUGI-Lol [[Leu^4] TG] | 0.6 | 0.3 |  |  | 
2 | Oct-XGLUGGLLGI-Lol [[TOAC^1, Leu^8] TG] | 0.7 | 0.2 |  |  | 
3 | CCCCCCCC(=O)NC1(C(=O)NCC(=O)N[C@@H](CC(C)C)C(=O)NC(C)(C)C(=O)NCC(=O)NCC(=O)N[C@@H](CC(C)C)C(=O)NC(C)(C)C(=O)NCC(=O)N[C@H](C(=O)N[C@H](CO)CC(C)C)[C@@H](C)CC)CC(C)(C)N([O])C(C)(C)C1 [[TOAC^1] TG, Oct-XGLUGGLUGI-Lol] (Octanoyl-[TOAC]GL[Aib]GGL[Aib]GI[Leu(ol)]) | 0.6 | 0.3 | 12 ns | 9 ns | 9 ns
4 | CCCCCCCC(=O)NC1(C(=O)NCC(=O)N[C@@H](CC(C)C)C(=O)NC2(C(=O)NCC(=O)NCC(=O)N[C@@H](CC(C)C)C(=O)NC(C)(C)C(=O)NCC(=O)N[C@H](C(=O)N[C@H](CO)CC(C)C)[C@@H](C)CC)CCNCC2)CC(C)(C)N([O])C(C)(C)C1 [[TOAC^1, Api^4] TG, Oct-XGLZGGLUGI-Lol] (Octanoyl-[TOAC]GL[Api]GGL[Aib]GI[Leu(ol)]) | 0.6 | 0.5 | 12 ns | 12 ns | 12 ns
5 | CCCCCCCC(=O)NC1(C(=O)NCC(=O)N[C@@H](CC(C)C)C(=O)NC(C)(C)C(=O)NCC(=O)NCC(=O)N[C@@H](CC(C)C)C(=O)NC(C)(C)C(=O)N[C@@H](CCCNC(=N)N)C(=O)N[C@H](C(=O)N[C@H](CO)CC(C)C)[C@@H](C)CC)CC(C)(C)N([O])C(C)(C)C1 [[TOAC^1, Arg^9] TG, Oct-XGLUGGLURI-Lol] (Octanoyl-[TOAC]GL[Aib]GGL[Aib]RI[Leu(ol)]) | 0.6 | 0.4 |  |  | 
6 | CCCCCCCC(=O)NC(C)(C)C(=O)NCC(=O)N[C@@H](CC(C)C)C(=O)NC(C)(C)C(=O)N[C@@H](CCCCN)C(=O)N[C@@H](CCCCN)C(=O)N[C@@H](CC(C)C)C(=O)NC(C)(C)C(=O)NCC(=O)N[C@H](C(=O)N[C@H](CO)CC(C)C)[C@@H](C)CC [[Lys^5,6] TG, Oct-UGLUKKLUGI-Lol] | 0.5 | 0.5 |  |  | 
7 | CCCCCCCC(=O)NC1(C(=O)NCC(=O)N[C@@H](CC(C)C)C(=O)NC(C)(C)C(=O)N[C@@H](CCCCN)C(=O)N[C@@H](CCCCN)C(=O)N[C@@H](CC(C)C)C(=O)NC(C)(C)C(=O)NCC(=O)N[C@H](C(=O)N[C@H](CO)CC(C)C)[C@@H](C)CC)CC(C)(C)N([O])C(C)(C)C1 [[TOAC^1, Lys^5,6] TG, Oct-XGLUKKLUGI-Lol] | 0.8 | 0.6 |  |  | 
8 | CCCCCCCC(=O)NC(C)(C)C(=O)NCC(=O)N[C@@H](CC(C)C)C(=O)NC(C)(C)C(=O)NCC(=O)NCC(=O)N[C@@H](CC(C)C)C(=O)NC1(C(=O)NCC(=O)N[C@H](C(=O)N[C@H](CO)CC(C)C)[C@@H](C)CC)CCNCC1 [[Api^8] TG, Oct-UGLUGGLZGI-Lol] (Octanoyl-[Aib]GL[Aib]GGL[Api]GI[Leu(ol)]) | 0.4 | 0.4 |  |  | 
9 | CCCCCCCC(=O)NC(C)(C)C(=O)NCC(=O)N[C@@H](CC(C)C)C(=O)NC(C)(C)C(=O)NCC(=O)NCC(=O)N[C@@H](CC(C)C)C(=O)NC(C)(C)C(=O)NCC(=O)N[C@H](C(=O)N[C@H](CO)CC(C)C)[C@@H](C)CC [TG, 1-Oct-Aib-Gly-Leu-Aib-Gly-Gly-Leu-Aib-Gly-Ile-Lol, reference compound] (Octanoyl-[Aib]GL[Aib]GGL[Aib]GI[Leu(ol)]) | 0.5 | 0.2 |  |  | 
10 | CCCCCCCC(=O)NC1(C(=O)N[C@@H](CCCNC(=N)N)C(=O)N[C@@H](CC(C)C)C(=O)NC(C)(C)C(=O)NCC(=O)NCC(=O)N[C@@H](CC(C)C)C(=O)NC(C)(C)C(=O)NCC(=O)N[C@H](C(=O)N[C@H](CO)CC(C)C)[C@@H](C)CC)CC(C)(C)N([O])C(C)(C)C1 [[TOAC^1, Arg^2] TG, Oct-XRLUGGLUGI-Lol] (Octanoyl-[TOAC]RL[Aib]GGL[Aib]GI[Leu(ol)]) | 0.6 | 0.3 |  |  | 
11 | CCCCCCCC(=O)NC(C)(C)C(=O)N[C@@H](CCCNC(=N)N)C(=O)N[C@@H](CC(C)C)C(=O)NC(C)(C)C(=O)NCC(=O)NCC(=O)N[C@@H](CC(C)C)C(=O)NC(C)(C)C(=O)NCC(=O)N[C@H](C(=O)N[C@H](CO)CC(C)C)[C@@H](C)CC [[Arg^2] TG, Oct-URLUGGLUGI-Lol] (Octanoyl-[Aib]RL[Aib]GGL[Aib]GI[Leu(ol)]) | 0.6 | 0.4 |  |  | 
12 | CCCCCCCC(=O)NC(C)(C)C(=O)NCC(=O)N[C@@H](CC(C)C)C(=O)NC(C)(C)C(=O)NCC(=O)N[C@@H](CCCCN)C(=O)N[C@@H](CC(C)C)C(=O)NC(C)(C)C(=O)NCC(=O)N[C@H](C(=O)N[C@H](CO)CC(C)C)[C@@H](C)CC [[Lys^6] TG, Oct-UGLUGKLUGI-Lol] | 0.6 | 0.4 |  |  | 

Square brackets hold non-standard residues; d marks the D form. Peptide text beside a SMILES is read from it. * marks the point of attachment. TOAC = CC1(C)CC(N)(C(=O)O)CC(C)(C)N1[O]; Leu(ol) = CC(C)C[C@H](N)CO; Octanoyl = CCCCCCCC(=O)*; Api = NC1(C(=O)O)CCNCC1; Aib = CC(C)(N)C(=O)O
